Measured values as given in PubChem BioAssay AID504444 (National Center for Advancing Translational Sciences (NCATS), 2011).
Among all 360,000 compounds or so, about 7,500 (2.1%) were called active. Inconclusive means that the source gave no clear call. Such entries were picked first, then a sample of the others. The call rests on the fitted dose curve; in most records, active means well fitted inhibition curve with a large enough effect; inconclusive means small, poorly fitted or top-dose-only effect, or effect the other way; inactive means flat fitted curve, though single readings scatter. Potencies of inconclusive entries are doubtful fits and often do not repeat.

Experiment: Nrf2 qHTS screen for inhibitors; further: nearly all actives have a fitted effect of over 60% in size
Details: A549 ARE-Fluc reporter, luciferase luminescence, 18-24 h; activity change, negative = inhibition: at 46 µM (top of the series)
Procedure, shortened: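 Reporter: ARE-Fluc in A549. Exposure: 18-24 h, 37 °C, 5% CO2, 5% FBS OPTI-MEM. Readouts: fluorescent cytotoxicity (CellTiter-Fluor), then luminescent Nrf2 signal after BugLite.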
On the % scale 0 is the no-effect control and ±100 the full control effect; potency means the concentration at half of the fitted maximal effect.

SMILES	Potency	activity change, negative = inhibition
O=C(c1ccco1)N1CCN(c2nc(C3CC3)nc3c2nnn3Cc2ccccc2Cl)CC1	active: 16.4 µM	–
O=C(Nc1nc2ccccc2[nH]1)c1ccc(Br)o1	inconclusive: 2.59 µM [activator, full curve]	–
Cc1nc2cc(-c3sccc3-n3cccc3)nn2c(C)c1C	–	inactive: 10.7%
CC1Cc2ccccc2N1C(=O)COC(=O)c1ccc([N+](=O)[O-])o1 (stereo not drawn)	–	inactive: -6.98%
COc1ccc(NC(=O)Cn2cnc3c(nc4n3CCCCC4)c2=O)c(OC)c1	inconclusive: 29.1 µM [activator, single point]	–
COc1cccc(-c2noc(-c3ccc(Cl)nc3)n2)c1	inconclusive: 23.1 µM [activator, partial curve]	–
O=C1CS/C(=N\N=C\c2ccco2)N1c1ccccc1	inconclusive: 8.2 µM [activator, partial curve]	–
O=C(Nc1cccc(S(=O)(=O)N2CCOCC2)c1)C1CCCN(C(=O)c2ccc(Cl)cc2)C1 (stereo not drawn)	inconclusive: 29.1 µM [falling, single point]	–
COc1ccc(CNC(=S)N/N=C/c2ccc(O)c(OC)c2)cc1	inconclusive: 6.51 µM [activator, single point]	–
COc1ccc(NC(=O)c2c(N)no[n+]2[O-])cc1	inconclusive: 5.8 µM [falling, full curve]	–
O=C(Nc1ccc2c(c1)OCO2)Nc1ccc2c(c1)OCO2	inconclusive: 3.66 µM [activator, full curve]	–
CCn1ncc(Br)c1C(=O)Nc1cc(C(=O)OC)ccc1C(=O)OC	inconclusive: 16.4 µM [activator, single point]	–
O=C(N/N=C/c1ccc(OC(F)F)cc1)C1=COCCO1	inconclusive: 6.51 µM [activator, partial curve]	–
COc1ccc(-c2nnc(SCC(=O)N3CCCC3)o2)cc1	inconclusive: 11.6 µM [activator, partial curve]	–
COc1ccccc1/C=C/C(=O)NC(=S)Nc1ccccn1	inconclusive: 25.9 µM [activator, single point]	–
O=C(CSc1ccc([N+](=O)[O-])cc1)Nc1cccc(S(=O)(=O)Nc2ccccc2F)c1	–	inactive: -8.96%
COc1ccc(-c2cc(=O)c3ccccc3o2)cc1	–	inactive: 29%
CC1=C(C(=O)N2CCOCC2)C(c2ccccc2F)NC(=O)N1 (stereo not drawn)	–	inactive: -7.43%
COn1c(SCc2cccc(Cl)c2)nc2ccccc2c1=O	–	inactive: -20%
Cc1ccc(S(=O)(=O)N2CCCN(c3nc4cc(C)ccc4cc3C#N)CC2)cc1	inconclusive: 20.6 µM [falling, single point]	–
Cc1c(-c2ccccc2)[n+](=O)c(-c2ccc(Cl)cc2)c(C)n1[O-]	–	inactive: 1.21%
COc1ccc(C2SCCN2S(=O)(=O)c2ccc(F)cc2)cc1OC (stereo not drawn)	–	inactive: -2.05%
N#C/C(=C/c1ccc(-c2ccc(S(N)(=O)=O)cc2)o1)c1nc2ccccc2s1	inconclusive: 29.1 µM [falling, single point]	–

SMILES	Potency	activity change, negative = inhibition
COc1ccc(OC)c(NC(=O)C2=C(C)C(=O)OC23CCCCCC3)c1	inconclusive: 18.4 µM [activator, partial curve]	–
O=C(COc1cc(F)ccc1[N+](=O)[O-])NCC1CCCO1 (stereo not drawn)	inconclusive: 29.1 µM [falling, partial curve, poor fit]	–
CCC(=O)Nc1ccc(NCc2ccc(-c3ccccc3)cc2)cc1	inconclusive: 9.2 µM [falling, partial curve]	–
O=[N+]([O-])c1nn(-c2ccccc2)n(O)c1=NCc1ccc2c(c1)OCO2	inconclusive: 29.1 µM [activator, single point]	–
N#Cc1c(-c2ccco2)c2c([nH]c1=S)CCCC2	inconclusive: 2.59 µM [falling, partial curve, poor fit]	–
Cn1ccc(C(=O)Nc2sc3c(c2C(N)=O)CCCCC3)n1	inconclusive: 8.2 µM [activator, partial curve]	–
O=C(NCc1ccc(F)cc1)c1cc2ccccc2o1	inconclusive: 23.1 µM [activator, single point]	–
O=[N+]([O-])c1ccc2[nH]c(=S)[nH]c2c1	inconclusive: 29.1 µM [falling, partial curve, poor fit]	–
COc1ccc([C@H]2CC(=O)C=C(c3cccc(OC)c3OC)C2)cc1OC	inconclusive: 29.1 µM [falling, single point]	–
COc1ccc(-c2cc(C(F)(F)F)nc(SCCC(=O)NCc3ccccc3)n2)cc1	–	inactive: -17.1%
Cc1ccc(Nc2nc(N)c([N+](=O)[O-])c(N3CCCC(C)C3)n2)cc1C (stereo not drawn)	inconclusive: 4.61 µM [falling, single point]	–
Cc1[nH]nc(C(F)(F)F)c1N=NN1CCOCC1	inconclusive: 20.6 µM [falling, single point]	–
CC1=NNC(=O)/C1=C\c1cn(-c2ccccc2)nc1-c1ccc(F)cc1	inconclusive: 29.1 µM [falling, single point]	–
CCCC(=O)Nc1ccc(C(=O)NCC(=O)OCC)cc1	inconclusive: 9.2 µM [activator, partial curve, poor fit]	–
c1csc(-c2nnc(-c3ccc(N4CCOCC4)cc3)o2)c1	inconclusive: 1.46 µM [activator, partial curve]	–
N#Cc1c(/N=C/c2ccco2)sc2c1CCC2	inconclusive: 11.6 µM [activator, single point]	–
CCCCc1ccc(NC(=S)Nc2ccc(Nc3ccc(OC)cc3)cc2)cc1	–	inactive: -20.1%
CCOc1ccc(-c2nnc(NC(=O)CCCOc3cccc(C)c3)o2)cc1	inconclusive: 32.6 µM [falling, single point]	–
CCn1cc(C(=O)NC(=S)Nc2ccccc2Br)cn1	–	inactive: -12.9%
CCN(C(=O)c1cc2c(=O)n3cccc(C)c3nc2n1CCCOC)C1CCCCC1	inconclusive: 23.1 µM [falling, single point]	–
CCn1c(NCCCO)nc2c(c1=O)C(C)(CC)Cc1ccccc1-2 (stereo not drawn)	inconclusive: 14.6 µM [falling, partial curve]	–
COc1ccc(-c2ccc(SCC(=O)Nc3cccc(C(C)=O)c3)nn2)cc1OC	inconclusive: 20.6 µM [falling, partial curve]	–
O=C(NC1CC1)C1=C[C@H](c2csc3ccccc23)C[C@H](OCCCCO)O1	–	inactive: -19.7%

Single records, from the list above. Order of values: Potency | activity change, negative = inhibition
CCCCc1ccc(NC(=S)Nc2ccc(Nc3ccc(OC)cc3)cc2)cc1 is listed as – | inactive: -20.1%
CCN(C(=O)c1cc2c(=O)n3cccc(C)c3nc2n1CCCOC)C1CCCCC1 is listed as inconclusive: 23.1 µM [falling, single point] | –
CCn1cc(C(=O)NC(=S)Nc2ccccc2Br)cn1 is listed as – | inactive: -12.9%
O=[N+]([O-])c1nn(-c2ccccc2)n(O)c1=NCc1ccc2c(c1)OCO2 is listed as inconclusive: 29.1 µM [activator, single point] | –

Remaining list, next part

SMILES	Potency	activity change, negative = inhibition
Cc1ccc(-c2cc(-c3ccccc3)no2)cc1	inconclusive: 2.59 µM [activator, full curve]	–
O=C(CCc1ccccc1)NCC1OCCc2ccccc21 (stereo not drawn)	–	inactive: 5.2%
COc1ccc(CNc2nc3c(-c4cccc(C)c4)nnn3c3ccccc23)cc1	–	inactive: 12.1%
Cc1nn(CC(=O)N2CCC(C)CC2)c(=O)c2cc3sccc3n12	–	inactive: 9.95%
COc1ccc(-c2csc(N3CCN(S(=O)(=O)c4ccc5c(c4)NC(=O)CO5)CC3)n2)cc1	inconclusive: 29.1 µM [falling, single point]	–
CCOc1ccc(CCNC(=O)c2cn(C)c3ccc(S(=O)(=O)N4CCCCCC4)cc3c2=O)cc1OCC	inconclusive: 16.4 µM [activator, single point]	–
CC1CC(c2ccccc2)=Nc2ccccc2N1 (stereo not drawn)	inconclusive: 23.1 µM [activator, single point]	–
O=C(NCCc1ccccc1)C(=O)NCC1OCCN1S(=O)(=O)c1ccc2c(c1)OCCO2 (stereo not drawn)	inconclusive: 32.6 µM [falling, partial curve, poor fit]	–
CCOC(=O)c1cc2c(ccn2-c2ccc(F)cc2)n1CC(=O)N1CCN(C(=O)c2ccco2)CC1	–	inactive: 1.86%
O=C(Nc1c(C(=O)Nc2ccc3c(c2)OCCO3)cnn1-c1ccccc1Cl)c1ccco1	inconclusive: 4.11 µM [activator, full curve]	–
Cc1ccc(CN(C(=O)COc2ccc([N+](=O)[O-])cc2)c2ccccn2)cc1	–	inactive: 6.1%
Nc1nc(/C=C/c2ccc(F)cc2)nc(-c2ccccc2O)n1	inconclusive: 25.9 µM [falling, single point]	–
CC(=O)N[C@@H](C)C(=O)N1CCC(n2nccc2NC(=O)CCCc2ccccc2)CC1	inconclusive: 9.2 µM [activator, partial curve, poor fit]	–
CCN(CC)c1ccc(N/C(N)=N/c2nc(C(F)(F)F)cc(=O)[nH]2)cc1	inconclusive: 0.58 µM [activator, full curve, poor fit]	–
O=C(C[C@H]1C[C@H](C(=O)N2CCOCC2)[C@@]2(CCC3CCCC3)c3[nH]c4ccc(Cl)cc4c3CCN2C1=O)NCCc1ccccn1	inconclusive: 25.9 µM [falling, single point]	–
O=C(C1CCC(=O)N(C2CC2)C1)N1CCC(Oc2cccc(C(F)(F)F)c2)CC1 (stereo not drawn)	inconclusive: 16.4 µM [activator, partial curve, poor fit]	–
S=C(NCc1ccccc1)Nc1cccc2ccccc12	inconclusive: 20.6 µM [falling, single point]	–
Cc1sc(NC(=O)CSc2nnnn2C2CCCC2)c(C#N)c1C	inconclusive: 29.1 µM [falling, single point]	–
Cc1cc(NC(=O)CO/N=C/c2ccc3c(c2)OCO3)ccc1Br	inconclusive: 25.9 µM [falling, single point]	–
CCOCCc1nn2c(=O)cc(COC(=O)CNC(=O)c3cccc(C)c3)nc2s1	inconclusive: 20.6 µM [activator, single point]	–
Cc1nnsc1C(=O)NC1CCCc2c1cnn2-c1ccccc1F (stereo not drawn)	active: 2.06 µM	–
CCOc1ccccc1-n1c(=S)sc2c(=O)n(-c3ccc(C)cc3)c(=S)[nH]c21	inconclusive: 0.116 µM [falling, full curve, poor fit]	–
